For the test, the target named is CCR7-LgBiT (human) (UniProt P32248). The test is described as follows: split reporter; NanoBiT in live HEK293 cells transiently co-transfected with CCR7-LgBiT and SmBiT-β-arrestin2; HBSS, 20 mM HEPES, 0.5% FBS, pH 7.4; stimulated with CCL19 or CCL21, luminescence followed for 40 min; also after pre-treatment with PTX (50 ng/mL) or CMPD101 (10 µM).

Sequences of proteins named here, by UniProt entry; tags and fusion partners are left off. Residues count along the entry.
UniProt P32248, residues 25-378: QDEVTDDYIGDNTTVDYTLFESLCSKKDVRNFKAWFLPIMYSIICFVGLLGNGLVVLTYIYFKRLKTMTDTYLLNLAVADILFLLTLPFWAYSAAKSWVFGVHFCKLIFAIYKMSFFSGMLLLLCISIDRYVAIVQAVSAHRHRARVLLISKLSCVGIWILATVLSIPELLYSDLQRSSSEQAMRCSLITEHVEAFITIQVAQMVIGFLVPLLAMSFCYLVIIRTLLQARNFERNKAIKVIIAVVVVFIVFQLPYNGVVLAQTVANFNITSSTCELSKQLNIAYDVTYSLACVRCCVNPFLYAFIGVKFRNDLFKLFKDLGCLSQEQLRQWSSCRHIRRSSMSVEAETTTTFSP
UniProt P32121: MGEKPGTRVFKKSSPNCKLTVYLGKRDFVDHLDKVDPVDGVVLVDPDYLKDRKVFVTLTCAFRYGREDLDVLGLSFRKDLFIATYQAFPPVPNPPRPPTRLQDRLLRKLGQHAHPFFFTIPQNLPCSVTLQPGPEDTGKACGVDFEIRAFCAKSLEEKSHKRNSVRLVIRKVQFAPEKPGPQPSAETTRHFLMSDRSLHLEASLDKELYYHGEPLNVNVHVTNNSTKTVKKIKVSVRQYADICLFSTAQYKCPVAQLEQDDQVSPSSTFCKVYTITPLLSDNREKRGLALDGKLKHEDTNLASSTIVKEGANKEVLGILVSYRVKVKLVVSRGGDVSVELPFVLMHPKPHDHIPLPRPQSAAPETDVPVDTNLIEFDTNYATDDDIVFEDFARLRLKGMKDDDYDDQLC

These are yes or no findings as the source states them, for the method shown. Binding seen in cells or lysates may run through a third protein. Some results given as binding are weak or reduced against the parent protein; the word gives no strength.

Regarding “SmBiT-β-arrestin2 (from UniProt P32121 1-409)”, the binding entry is “binds”.

The record behind these values is PMC9408853.
